{"source": "patent CN114075281A", "binders": {"B1": {"name": "抗Inhibin-α蛋白单克隆抗体(15E11D5E11) (antibody, V domains shown)", "VH": "EVQLQQSGPELVKPGTSVKISCKTAGYTFTAYNIHWVKQSHGKSLEWIGSINPNFGDTRYNQMFEGKATLTVDKSSSTAYMELRSLTSEDAVVYYCARSSGAWFPYWGQGTLVTVSA", "VL": "DVLMTQIPLSLPVSLGDQASISCRASQSIVHSSGNTYLEWYLQKPGQSPKLLIYKVSNRFSGVPDRFSGSGSGTDFTLKISRVEAEDLGVYYCFQGSHVPPTFGGGTNLEIK"}}, "target": "T1, 人Inhibin-α蛋白 (in human tissue sections) (human) (UniProt P05111)", "T1 sequence (looked up)": "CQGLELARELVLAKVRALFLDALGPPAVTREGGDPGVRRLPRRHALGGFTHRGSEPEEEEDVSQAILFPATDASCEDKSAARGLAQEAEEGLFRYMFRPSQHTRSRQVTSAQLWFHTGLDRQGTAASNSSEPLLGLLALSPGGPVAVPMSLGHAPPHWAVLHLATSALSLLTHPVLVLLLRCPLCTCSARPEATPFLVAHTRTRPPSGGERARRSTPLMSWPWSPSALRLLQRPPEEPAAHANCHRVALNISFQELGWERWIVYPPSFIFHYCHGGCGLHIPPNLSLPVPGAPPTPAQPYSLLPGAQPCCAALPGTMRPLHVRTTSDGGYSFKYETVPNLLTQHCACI", "test": "immunohistochemistry on paraffin sections of human tumour tissue", "note": "These are yes or no findings as the source states them, for the method shown. Some binding calls cover weakened binding; strength is not graded here.", "data": [{"binder": "B1", "values": [{"measurement": "binding", "value": "binds"}]}]}
